Laboratory results taken from patent US20120022113A1, “METHODS FOR SUPPRESSING TIPDC TRAFFICKING OR ACCUMULATION AND PREVENTING HYPERCYTOKINEMIA” (priority 2009, published 2012).
For at least one compound, name, drawing or mass did not settle the structure.

Key:
[1] = system: H1N1 A/Puerto Rico/8/34 (PR8) influenza A virus; design: species or system B6 mice; conditions: mouse, in vivo
tipDC = format: in vivo, B6 mice; conditions: pioglitazone vs PBS, flow cytometry
CCL2 (MCP-1) = test: Cytokine/chemokine quantification in BAL supernatant (BIORAD multiplex assay); format: in vivo, B6 mice; conditions: pioglitazone vs PBS
MCP-3 = MCP-3 quantification in BAL supernatant (ELISA); format: in vivo, B6 mice; conditions: pioglitazone vs PBS
PR8 virus = format: in vivo, B6 mice; conditions: pioglitazone- vs PBS-treated animals
CCL2, TNF-α, and iNOS = conditions: Haraguchi, et al. (2008); cited from earlier work

For `CCc1ccc(CCOc2ccc(CC3SC(=O)NC3=O)cc2)nc1` (stereo not shown) [pioglitazone], the “morbidity (weight loss) and recovery” value [1] was “less severely affected and recovered more quickly than the PBS controls”, the “magnitude of the cellular inflammatory exudate” value (tipDC) was “general decrease” and the “tipDC numbers in the lungs” value (tipDC) was “statistically significant reduction”. The “CCL2 (MCP-1) in the BAL supernatant” value (CCL2 (MCP-1)) was “reduced to a statistically significant level”, the “MCP-3 in the BAL supernatant” value (MCP-3) was “reduced to a statistically significant level” and the “virus titers in the BAL fluid” value (PR8 virus) was “No significant differences”. The “production of proinflammatory molecules, including CCL2, TNF-α, and iNOS” value (CCL2, TNF-α, and iNOS) was “reduces the production”.
